These are yes or no findings as the source states them, for the method shown. Some binding calls cover weakened binding; strength is not graded here.
How the values were obtained:
[1] = molecular target: T1, human IL-13 receptor α2 chain (IL-13Rα2) (human, UniProt Q14627 27-380); assay: 125I-IL-13 radioreceptor binding on DU145α2 cells; binding 'greatly increased' after IL-13Rα2 transfection
T1 construct: also called IL-13Rα2 chain; IL-13Rα chain
T1 sequence: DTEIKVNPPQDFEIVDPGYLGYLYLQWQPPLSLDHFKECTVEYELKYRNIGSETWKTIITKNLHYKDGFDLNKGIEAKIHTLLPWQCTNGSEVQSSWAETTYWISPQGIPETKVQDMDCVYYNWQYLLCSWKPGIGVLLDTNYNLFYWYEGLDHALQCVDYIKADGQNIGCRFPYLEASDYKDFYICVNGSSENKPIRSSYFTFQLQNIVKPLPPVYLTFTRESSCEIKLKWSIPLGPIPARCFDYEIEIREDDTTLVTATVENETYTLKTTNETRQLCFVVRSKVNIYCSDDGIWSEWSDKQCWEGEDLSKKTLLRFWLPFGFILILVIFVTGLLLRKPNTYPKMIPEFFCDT

Amino acid sequences for entries named in this document (tags omitted). Residues count along the entry.
UniProt P35225, residues 35-146: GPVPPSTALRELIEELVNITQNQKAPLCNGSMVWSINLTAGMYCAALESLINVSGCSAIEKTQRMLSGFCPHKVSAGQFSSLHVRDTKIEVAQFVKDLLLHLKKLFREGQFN

[2] = molecular target: T1, human IL-13 receptor α2 chain (IL-13Rα2); assay: 125I-IL-13 radioreceptor binding on transfected cells
[3] = molecular target: T1, human IL-13 receptor α2 chain (IL-13Rα2); assay: 125I-IL-13 radioreceptor binding on A253α2, YCUT891α2 and KCCT871α2 stable transfectants
[4] = molecular target: T1, human IL-13 receptor α2 chain (IL-13Rα2); assay: 125I-IL-13 (200 pM) radioreceptor binding on T98G, A253, Caki-1 and PANC-1 cells transiently transfected with IL-13Rα2, 4 C, 2 h

binding [1]: binds
binding [2]: binds
binding [3]: binds
binding [4]: binds
Substance: Recombinant human IL-13 (from UniProt P35225 35-146) (ligand)

Reference: patent US20040136959A1 (published 2004)
